Structures can show the parent of a compound that is named as a salt. Some of the results follow. Single values are uncertain here, since repeats match poorly.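 The cells were human embryonic kidney cells carrying a Renilla luciferase gene, driven by the HSV-TK promoter, on a plasmid put in briefly by transfection. This is the first-round screen of about ten thousand compounds, looking for ones that raise reporter output.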

Log data for 47 compounds are collected here from the supplement of paper PMC7024190.

For the experiment, the system named is HEK 293FT. In words: log relative Renilla luciferase luminescence (reporter expression vs reference, reference not stated) (log (base not stated)); higher = higher recombinant reporter expression. As to conditions: 10 µM; time after transfection 48 h.
With `Cn1nnnc1SCC1=C(C(=O)O)N2C(=O)[C@@H](NC(=O)[C@H](OC=O)c3ccccc3)[C@H]2SC1` [cefamandole nafate], the log worked out at 0.211.

`OCC(O)C(O)C(O)C(O)C(O)CO` (configuration not stated) [perseitol]: the log came to 0.172.

For the compound `CC(C)=CCC/C(C)=C/CC/C(C)=C/CC/C(C)=C/CC1=C(C)C(=O)c2ccccc2C1=O` [menaquinone-4], the log worked out at 0.0307.

As for `COc1cc(O)c(C)c(O)c1` [2,6-dihydroxy-4-methoxytoluene], the log came out at 0.0157.

As for `C[C@]12CC[C@@H]3c4ccc(O)cc4CC[C@H]3[C@@H]1C[C@H](O)[C@@H]2O` [epiestriol], the log was -0.163.

Turning to `C[C@H](CCC(=O)O)[C@H]1CC[C@H]2[C@@H]3CC[C@@H]4CCCC[C@]4(C)[C@H]3CC[C@]12C` [ursocholanic acid], the log was -0.224.

On to `CC1=C(CC(=O)O)c2cc(F)ccc2/C1=C\c1ccc([S+](C)[O-])cc1` (configuration not stated) [sulindac], for which the log amounted to 0.0335.

On to `CC(Oc1c(Cl)cccc1Cl)C1=NCCN1` (configuration not stated) [lofexidine  hydrochloride], for which the log was -0.0105.

With `Cc1cccc2c3c(ccc12)C1=C(C(=O)C3=O)[C@@H](C)CO1` [dihydrotanshinone i], the log is -0.134.

With `C[C@]12CC[C@@H]3c4ccc(O)cc4CC[C@H]3[C@@H]1C[C@@H](O)[C@@H]2O` [estriol], the log was determined as 0.0437.

Regarding `CCOc1ccc(C(=O)c2ccc(O)c(O)c2O)cc1` [2,3,4-trihydroxy-4'-ethoxybenzophenone], the log was -0.0238.

With `CCCCC(=O)O[C@]1(C(=O)CO)CC[C@H]2[C@@H]3CCC4=CC(=O)CC[C@]4(C)[C@H]3[C@@H](O)C[C@@]21C` [hydrocortisone valerate], the log turned out to be 0.0866.

Consider `CCc1cccc2c3c([nH]c12)C(CC)(CC(=O)O)OCC3` (configuration not stated) [etodolac], for which the log worked out at 0.121.

As to `Cc1noc(NS(=O)(=O)c2ccc(N)cc2)c1C` [sulfisoxazole], the log stood at 0.00411.

`CN(C)[C@@H]1C(O)=C(C(N)=O)C(=O)[C@@]2(O)C(O)=C3C(=O)c4c(O)ccc(Cl)c4[C@@H](O)[C@H]3C[C@@H]12` [demeclocycline hydrochloride]: the log was determined as 0.0615.

`COC(=O)[C@@H]1OC(=O)C2OC23[C@@]1(C)CCC1[C@@]2(C)CCC(=O)C(C)(C)C2C[C@@H](OC(C)=O)[C@]13C` (some centres not stated) [dihydrogedunic acid, methyl ester]: the log was 0.156.

On to `Cn1c([N+](=O)[O-])cnc1COC(N)=O` [ronidazole], for which the log came to 0.037.

Turning to `NC(N)=O` [urea], the log is -0.0748.

Consider `COc1ccc(C(=O)NCc2ccc(OCCN(C)C)cc2)cc1OC` [itopride  hydrochloride], for which the log turned out to be 0.0795.

As for `N[C@@H](C(=O)N[C@@H]1C(=O)N2C(C(=O)O)=C(Cl)CS[C@H]12)c1ccccc1` [cefaclor], the log is -0.316.

For `COc1ccc(-c2cc(C(F)F)nn2-c2ccc(S(N)(=O)=O)cc2)cc1F` [deracoxib], the log turned out to be 0.0569.

Take `CC(Oc1ccccc1)C(=O)N[C@@H]1C(=O)N2[C@@H]1SC(C)(C)[C@@H]2C(=O)O` (some centres not stated) [phenethicillin potassium]: the log is 0.127.

In the case of `OC[C@H]1O[C@@H](O[C@@H]2[C@@H](CO)OC(O)(CO)[C@H]2O)[C@H](O)[C@@H](O)[C@H]1O` (mixture of isomers) [lactulose], the log worked out at 0.131.

For the compound `C[C@@H]1CC[C@@]2(OC1)O[C@H]1C[C@H]3[C@@H]4CC[C@@H]5C[C@@H](O)CC[C@]5(C)[C@H]4CC[C@]3(C)[C@H]1[C@@H]2C` [smilagenin], the log was 0.0431.

As to `Cc1cc(O)c(C=O)c2c1C(=O)Oc1c(COC(=O)/C=C/C(=O)O)c(O)c(C(=O)O)c(C)c1O2` [fumarprotocetraric acid], the log is 0.184.

For the compound `CN(C)CCOC(=O)COc1ccc(Cl)cc1` [meclofenoxate hydrochloride], the log came to 0.0186.

Take `O=C(OCc1ccccc1)c1ccccc1` [benzyl benzoate]: the log is -0.0614.

As to `CCCc1nc(C(C)(C)O)c(C(=O)O)n1Cc1ccc(-c2ccccc2-c2nnn[nH]2)cc1` [olmesartan], the log was -0.0819.

`Cc1ccc2c(Cl)cc(Cl)c(O)c2n1` [chlorquinaldol]: the log was -0.0396.

With `N=C(N)N/N=C/c1c(Cl)cccc1Cl` [guanabenz acetate], the log was 0.277.

On to `OC(CCN1CCCCC1)(c1ccccc1)C1CCCCC1` (configuration not stated) [trihexyphenidyl hydrochloride], for which the log was -0.0675.

As for `CN(C)CC[C@@H](c1ccc(Cl)cc1)c1ccccn1` [dexchlorpheniramine maleate], the log is 0.0626.

On to `CN(CCOc1ccc(CC2SC(=O)NC2=O)cc1)c1ccccn1` (configuration not stated) [rosiglitazone maleate], for which the log amounted to 0.243.

As for `C[C@H]1C[C@@H]2[C@H]([C@@H](O)C[C@@]3(C)[C@H]2CC[C@]3(O)C(=O)COC(=O)CCC(=O)O)[C@@]2(C)C=CC(=O)C=C12` [methylprednisolone sodium succinate], the log was -0.0256.

For the compound `Nc1cc(-c2ccncc2)c[nH]c1=O` [inamrinone], the log came out at 0.0264.

In the case of `CC(N)C12CC3CC(CC(C3)C1)C2` (configuration not stated) [rimantadine hydrochloride], the log amounted to 0.00622.

As to `COC(=O)C(N)CS` (configuration not stated) [mecysteine hydrochloride], the log is -0.725.

Take `CC(C)(C(=O)c1cccnc1)c1cccnc1` [metyrapone]: the log amounted to 0.0547.

In the case of `NCCCCNCCCN` [spermidine trihydrochloride], the log came out at 0.0442.

On to `CN1CC(=O)NC1=N` [creatinine], for which the log was found to be 0.0872.

On to `C=CC(C)(O)CCC1C(=C)CC(O)C2C(C)(C)CCCC12C` (configuration not stated) [larixol], for which the log was found to be 0.0431.

Turning to `CC(=O)N(O)CCCCCNC(=O)CCC(=O)N(O)CCCCCNC(=O)CCC(=O)N(O)CCCCCN` [deferoxamine mesylate], the log is -0.275.

Turning to `O=C1Cc2cc(CCN3CCN(c4nsc5ccccc45)CC3)c(Cl)cc2N1` [ziprasidone mesylate], the log is -0.00118.

Regarding `CC(C)/N=c1\cc2n(-c3ccc(Cl)cc3)c3ccccc3nc-2cc1Nc1ccc(Cl)cc1` [clofazimine], the log stood at 0.027.

Regarding `CCNC(=O)CC[C@H](N)C(=O)O` [theanine potassium], the log was found to be 0.252.

With `CO[C@@]1(NC(=O)CSCC#N)C(=O)N2C(C(=O)O)=C(CSc3nnnn3C)CS[C@@H]21` [cefmetazole sodium], the log came to 0.114.

As for `C[C@@H]1[C@H](O)[C@@H](C)/C=C/C=C/C=C/C=C/C=C/C=C/C=C/[C@H](O[C@@H]2O[C@H](C)[C@@H](O)[C@H](N)[C@@H]2O)C[C@@H]2O[C@](O)(C[C@@H](O)C[C@@H](O)[C@H](O)CC[C@@H](O)C[C@@H](O)CC(=O)O[C@H]1C)C[C@H](O)[C@H]2C(=O)O` [amphotericin b], the log was -0.382.
